# According to the supplement of paper PMC8728848:
# The other results are listed elsewhere or left out.
# B1: Flo11 (Saccharomyces cerevisiae), P08640 (protein)
# chain: MQRPFLLAYLVLSLLFNSALGFPTALVPRGSSEGTSCNSIVNGCPNLDFNWHMDQQNIMQYTLDVTSVSWVQDNTYQITIHVKGKENIDLKYLWSLKIIGVTGPKGTVQLYGYNENTYLIDNPTDFTATFEVYATQDVNSCQVWMPNFQIQFEYLQGSAAQYASSWQWGTTSFDLSTGCNNYDNQGHSQTDFPGFYWNIDCDNNCGGTKSSTTTSSTSESSTTTSSTSESSTTTSSTSESSTTTSSTSESSTSSSTTAPATPTTTSCTKEKPTPPTTTSCTKEKPTPPHHDTTPCTKKKTTTSKTCTKKTTTPVPTPSSSTTESSSAPVPTPSSSTTESSSAPVTSSTTESSSAPVPTPSSSTTESSSAPVTSSTTESSSAPVTSSTTESSSAPVPTPSSSTTESSSAPVTSSTTESSSAPVTSSTTESSSAPVTSSTTESSSAPVTSSTTESSSAPVPTPSSSTTESSSAPVTSSTTESSSAPVPTPSSSTTESSSAPVTSSTTESSSAPVPTPSSSTTESSSAPAPTPSSSTTESSSAPVTSSTTESSSAPVPTPSSSTTESSSTPVTSSTTESSSAPVPTPSSSTTESSSAPVPTPSSSTTESSSAPAPTPSSSTTESSSAPVTSSTTESSSAPVPTPSSSTTESSSAPVPTPSSSTTESSSAPVPTPSSSTTESSSAPVTSSTTESSSAPVTSSTTESSSAPVPTPSSSTTESSSAPVPTPSSSTTESSSAPVPTPSSSTTESSSAPVTSSTTESSSAPVPTPSSSTTESSSAPVPTPSSSTTESSSAPVPTPSSSTTESSVAPVPTPSSSSNITSSAPSSTPFSSSTESSSVPVPTPSSSTTESSSAPVSSSTTESSVAPVPTPSSSSNITSSAPSSIPFSSTTESFSTGTTVTPSSSKYPGSQTETSVSSTTETTIVPTKTTTSVTTPSTTTITTTVCSTGTNSAGETTSGCSPKTVTTTVPTTTTTSVTTSSTTTITTTVCSTGTNSAGETTSGCSPKTITTTVPCSTSPSETASESTTTSPTTPVTTVVSTTVVTTEYSTSTKPGGEITTTFVTKNIPTTYLTTIAPTPSVTTVTNFTPTTITTTVCSTGTNSAGETTSGCSPKTVTTTVPCSTGTGEYTTEATTLVTTAVTTTVVTTESSTGTNSAGKTTTGYTTKSVPTTYVTTLAPSAPVTPATNAVPTTITTTECSAATNAAGETTSVCSAKTIVSSASAGENTAPSATTPVTTAIPTTVITTESSVGTNSAGETTTGYTTKSIPTTYITTLIPGSNGAKNYETVATATNPISIKTTSQLATTASASSVAPVVTSPSLTGPLQSASGSAVATYSVPSISSTYQGAANIKVLGNFMWLLLALPVVF
# Experiments:
# Test in all cases: glycan array binding signal (z-score within array); higher = stronger binding
# Conditions in all cases: glycan notation: IUPAC condensed, linker removed
# [1] = target: Fuc(a1-2)[GalNAc(a1-3)]Gal(b1-4)[Fuc(a1-3)]GlcNAc
# Method in brief: (§1)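 The Consortium for Functional Glycomics database supplied 3228 glycan arrays, of which those lacking an available protein sequence were dropped. The binding signal, a within-array Z-score, was averaged across arrays of the same protein sequence and across linkers. Negative scores can be read as non-binding.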
# [2] = target: Fuc(a1-2)[GalNAc(a1-3)]Gal(b1-4)[Fuc(a1-3)]GlcNAc(b1-3)GalNAc
# Method in brief: as §1
# [3] = target: Fuc(a1-2)[GalNAc(a1-4)]Gal(b1-4)GlcNAc
# Method in brief: as §1
# [4] = target: Fuc(a1-2)[GalNAc(b1-3)]Gal
# Method in brief: as §1
# Fuc(a1-3)GlcNAc = target: Fuc(a1-3)GlcNAc
# Method in brief: as §1
# [5] = target: Fuc(a1-3)[Gal(b1-4)]Glc6S
# Method in brief: as §1
# [6] = target: Fuc(a1-3)[Gal(b1-4)]GlcNAc
# Method in brief: as §1
# [7] = target: Fuc(a1-3)[Gal(b1-4)]GlcNAc(b1-2)Man(a1-3)[Fuc(a1-3)[Gal(b1-4)]GlcNAc(b1-2)Man(a1-6)]Man(b1-4)GlcNAc(b1-4)GlcNAc
# Method in brief: as §1
# [8] = target: Fuc(a1-3)[Gal(b1-4)]GlcNAc(b1-2)Man(a1-3)[Fuc(a1-3)[Gal(b1-4)]GlcNAc(b1-2)Man(a1-6)]Man(b1-4)GlcNAc(b1-4)[Fuc(a1-6)]GlcNAc
# Method in brief: as §1
# [9] = target: Fuc(a1-3)[Gal(b1-4)]GlcNAc(b1-3)Gal(b1-3)[Fuc(a1-4)]GlcNAc
# Method in brief: as §1
# [10] = target: Fuc(a1-3)[Gal(b1-4)]GlcNAc(b1-3)GalNAc
# Method in brief: as §1
# [11] = target: Fuc(a1-3)[Gal(b1-4)]GlcNAc(b1-4)Gal(b1-4)[Fuc(a1-3)]GlcNAc
# Method in brief: as §1
# [12] = target: Fuc(a1-3)[Gal(b1-4)]GlcNAc(b1-4)Gal(b1-4)[Fuc(a1-3)]GlcNAc(b1-4)Gal(b1-4)[Fuc(a1-3)]GlcNAc
# Method in brief: as §1
# [13] = target: Fuc(a1-3)[Gal(b1-4)]GlcNAc(b1-6)GalNAc
# Method in brief: as §1
# [14] = target: Fuc(a1-3)[Gal(b1-4)]GlcNAc(b1-6)[Gal(b1-3)GlcNAc(b1-3)]Gal(b1-4)Glc
# Method in brief: as §1
# [15] = target: Fuc(a1-3)[Gal(b1-4)]GlcNAc(b1-6)[Neu5Ac(a2-3)Gal(b1-3)]GalNAc
# Method in brief: as §1
# [16] = target: Fuc(a1-3)[Gal(b1-4)]GlcNAc6S
# Method in brief: as §1
# [17] = target: Fuc(a1-3)[Gal3S(b1-4)]GlcNAc
# Method in brief: as §1
# [18] = target: Fuc(a1-3)[Gal3S(b1-4)]GlcNAc6S
# Method in brief: as §1
# [19] = target: Fuc(a1-3)[GalNAc(b1-4)]GlcNAc
# Method in brief: as §1
# Fuc(a1-4)GlcNAc = target: Fuc(a1-4)GlcNAc
# Method in brief: as §1
# Fuc(b1-3)GlcNAc = target: Fuc(b1-3)GlcNAc
# Method in brief: as §1
# Gal(a1-2)Gal = target: Gal(a1-2)Gal
# Method in brief: as §1
binder,measurement,setting,value
B1,glycan array binding signal (z-score),[1],0.666
same,glycan array binding signal (z-score),[2],2.06
same,glycan array binding signal (z-score),[3],0.491
same,glycan array binding signal (z-score),[4],0.001
same,glycan array binding signal (z-score),Fuc(a1-3)GlcNAc,0.066
same,glycan array binding signal (z-score),[5],0.335
same,glycan array binding signal (z-score),[6],0.513
same,glycan array binding signal (z-score),[7],0.196
same,glycan array binding signal (z-score),[8],-1.2
same,glycan array binding signal (z-score),[9],-0.603
same,glycan array binding signal (z-score),[10],-0.504
same,glycan array binding signal (z-score),[11],0.956
same,glycan array binding signal (z-score),[12],-1.32
same,glycan array binding signal (z-score),[13],0.56
same,glycan array binding signal (z-score),[14],-1.18
same,glycan array binding signal (z-score),[15],0.687
same,glycan array binding signal (z-score),[16],-0.514
same,glycan array binding signal (z-score),[17],0.019
same,glycan array binding signal (z-score),[18],-0.061
same,glycan array binding signal (z-score),[19],1.61
same,glycan array binding signal (z-score),Fuc(a1-4)GlcNAc,0.442
same,glycan array binding signal (z-score),Fuc(b1-3)GlcNAc,-0.342
same,glycan array binding signal (z-score),Gal(a1-2)Gal,-0.278

# Exported bar-delimited: part of the list above
binder | measurement | setting | value
B1 | glycan array binding signal (z-score) | [6] | 0.513
same | glycan array binding signal (z-score) | [7] | 0.196
